{"source": "PubChem BioAssay AID504444", "about": "(National Center for Advancing Translational Sciences (NCATS), 2011)", "note": "Several values for one entry are separate records, joined by “and”; a condition that tells them apart may be missing. Equal entries are not always repeated. Hit rate of the full screen: of about 360,000 compounds, about 7,500 (2.1%) were called active. Inconclusive means that the source gave no clear call. Such entries were picked first, then a sample of the others. The call rests on the fitted dose curve; in most records, active means well fitted inhibition curve with a large enough effect; inconclusive means small, poorly fitted or top-dose-only effect, or effect the other way; inactive means flat fitted curve, though single readings scatter. Potencies of inconclusive entries are doubtful fits and often do not repeat. Potency means the concentration at half of the fitted maximal effect."}
{"assay": "Nrf2 qHTS screen for inhibitors; further: nearly all actives have a fitted effect of over 60% in size", "settings": "A549 ARE-Fluc reporter, luciferase luminescence, 18-24 h; series mostly up to 46 µM", "in_short": "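Nrf2 function is reported as luminescence of an ARE-controlled luciferase in A549 cells. Compounds were tested at several concentrations, and a CellTiter-Fluor read on the same wells flagged cytotoxicity.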"}
{"smiles": "COc1ccc(-c2noc(C3CCCN(C(=O)Nc4ccccc4)C3)n2)cc1", "note": "(centres undefined)", "Potency": "inconclusive: 23.1 µM [falling, single point]"}
{"smiles": "Cc1cccc(NC(=O)CSc2nnc(C)c(=O)n2N)c1", "Potency": "inactive"}
{"smiles": "COc1cccc(NC(=O)c2cnc(SCC(=O)NCc3ccc4c(c3)OCO4)n(C)c2=O)c1", "Potency": "inconclusive: 23.1 µM [activator, single point]"}
{"smiles": "Cc1cc(=O)oc2cc(NC(=O)c3ccc(OC(F)F)cc3)ccc12", "Potency": "inactive"}
{"smiles": "O=C(c1cc(-c2ccco2)on1)N1CCc2ccccc2C1", "Potency": "inconclusive: 14.6 µM [activator, partial curve, poor fit]"}
{"smiles": "O=C(Cn1ncc(Cl)c(Cl)c1=O)NC1CCS(=O)(=O)C1", "note": "(centres undefined)", "Potency": "inactive"}
{"smiles": "COC(=O)c1ccc(CSc2nc3ccccc3c(=O)n2Cc2ccco2)o1", "Potency": "inconclusive: 20.6 µM [falling, single point]"}
{"smiles": "Cc1ccccc1S(=O)(=O)Cc1ccc(C(=O)NCc2ccc(F)cc2)o1", "Potency": "inconclusive: 20.6 µM [falling, single point]"}
{"smiles": "COc1cccc(NC(=O)C2C(c3ccccc3)C2(Cl)Cl)c1", "note": "(centres undefined)", "Potency": "inconclusive: 29.1 µM [falling, single point]"}
{"smiles": "O=C(CN1CCN(c2cccc(C(F)(F)F)c2)CC1)N(C1CCCC1)C1CCS(=O)(=O)C1", "note": "(centres undefined)", "Potency": "inactive"}
{"smiles": "CCCSC1=NC2(CCN(C(=O)NC3CCCCC3)CC2)N=C1c1ccc(OC)cc1", "Potency": "inconclusive: 29.1 µM [falling, single point]"}
{"smiles": "CCn1cc(C(=O)NCCCOC(C)C)c(=O)c2cc(S(=O)(=O)N3CCC(C)CC3)ccc21", "Potency": "inconclusive: 23.1 µM [activator, single point]"}
{"smiles": "CCCN(CCC)Cc1c(C(=O)N/N=C/C(C)=C\\c2ccco2)nnn1-c1nonc1N", "Potency": "inactive"}
{"smiles": "Cc1sc2ncnc(NCC(O)c3ccc([N+](=O)[O-])cc3)c2c1C", "note": "(centres undefined)", "Potency": "inconclusive: 20.6 µM [falling, partial curve]"}
{"smiles": "CCC(=O)NC(c1ccc(C)cc1)c1cc(Cl)c2cccnc2c1O", "note": "(centres undefined)", "Potency": "inconclusive: 16.4 µM [falling, single point] and inconclusive: 29.1 µM [falling, single point]"}
{"smiles": "O=C(NCC(=O)N1CCCCC1)c1sc2ccccc2c1Cl", "Potency": "inconclusive: 3.26 µM [activator, partial curve]"}
{"smiles": "COc1ccc(OCC(=O)N/N=C/c2ccsc2)cc1", "Potency": "inconclusive: 0.58 µM [falling, partial curve, poor fit]"}
{"smiles": "c1ccc(COc2ccccc2CNC23CC4CC(CC(C4)C2)C3)cc1", "Potency": "inconclusive: 16.4 µM [activator, single point]"}
{"smiles": "Cc1occc1-c1nc(-c2ccccn2)no1", "Potency": "inconclusive: 0.58 µM [activator, full curve, poor fit]"}
{"smiles": "COc1ccc(-c2sc3ccc(N4CCOCC4)cc3c2C#CC2(O)CCCCC2)cc1", "Potency": "inactive"}
{"smiles": "N#CC1=C2SCCN2C(=O)C(C#N)C12CCCCC2", "note": "(centres undefined)", "Potency": "inactive"}
{"smiles": "COc1cccc(-c2nc3c(C#N)c[nH]n3c2NC2CCCCC2)c1", "Potency": "inactive"}
{"smiles": "CCc1cccc(NC(=O)Cn2c(=O)n(CC3CCC(C(=O)NC)CC3)c(=O)c3sccc32)c1", "note": "(centres undefined)", "Potency": "inconclusive: 10.3 µM [falling, partial curve, poor fit]"}
{"smiles": "COc1cccc(CNC(=O)CN(c2ccc(C)cc2)S(=O)(=O)N(C)C)c1OC", "Potency": "inactive"}
{"smiles": "COc1cccc(CNC(=O)Cn2c(=O)cc(C)c3c(C)nn(C)c32)c1OC", "Potency": "inconclusive: 2.31 µM [falling, full curve, poor fit]"}
{"smiles": "CCc1ccc2oc(C(=O)NCc3ccncc3)c(C)c2c1", "Potency": "inconclusive: 32.6 µM [falling, single point]"}
{"smiles": "O=C1CCCc2nc(N3CCCCC3)sc21", "Potency": "inconclusive: 16.4 µM [activator, partial curve]"}
{"smiles": "CCN1C(=O)[C@@H]2[C@@H](c3ccc(-c4cccc(Cl)c4)cc3)N3CCC[C@@]3(C(=O)OC)[C@@H]2C1=O", "Potency": "inconclusive: 25.9 µM [falling, partial curve, poor fit]"}
{"smiles": "CCOC(=O)c1c(NC(=O)CN2C(=O)C(=O)N(C(C)C)C2=O)sc(C)c1CC", "Potency": "inconclusive: 13 µM [falling, single point]"}
{"smiles": "N#CC1=C(N)N(c2ccc(Cl)cc2)C2=C(C(=O)CCC2)C1c1cc(CN2CCOCC2)cs1", "note": "(centres undefined)", "Potency": "inactive"}
{"smiles": "Oc1ccc(C(=S)N2CCN(Cc3ccccc3)CC2)cc1", "Potency": "inconclusive: 0.0291 µM [falling, full curve, poor fit]"}
{"smiles": "O=C(CSc1nnnn1-c1ccc(F)cc1)c1ccc(O)c(O)c1", "Potency": "inconclusive: 29.1 µM [activator, single point]"}
{"smiles": "C=CCNC(=O)c1cc2c(=O)n3cccc(C)c3nc2s1", "Potency": "inconclusive: 3.66 µM [activator, full curve, poor fit]"}
{"smiles": "COc1cc(C(=O)NC2CCCc3c2cnn3-c2ccccc2F)cc(OC)c1OC", "note": "(centres undefined)", "Potency": "active: 6.51 µM"}
{"smiles": "COc1ccc(-n2nc3c(N4CCC(C(=O)NCCc5ccccc5C)CC4)nnc(C)c3c2C)cc1", "Potency": "inconclusive: 0.461 µM [falling, partial curve, poor fit]"}
{"smiles": "Cc1ccc(-c2cc(C(=O)N3N=C(C(F)F)CC3(O)C(F)F)c3ccccc3n2)cc1C", "note": "(centres undefined)", "Potency": "inconclusive: 18.4 µM [falling, single point]"}
{"smiles": "O=C(c1ccc(Cl)cc1)C1CCCN(Cc2cnn(-c3ccccc3)c2)C1", "note": "(centres undefined)", "Potency": "inconclusive: 20.6 µM [falling, partial curve, poor fit]"}
{"smiles": "CN(C)C(CNC(=O)c1ccc(C(=O)c2ccccc2)cc1)c1ccccc1", "note": "(centres undefined)", "Potency": "inconclusive: 14.6 µM [activator, partial curve, poor fit]"}
{"smiles": "Cn1c(C(=O)NCc2ccccc2Cl)cc2sc(Cl)cc21", "Potency": "inconclusive: 6.51 µM [activator, partial curve, poor fit]"}
{"smiles": "COc1ccc(OCc2csc(N)n2)cc1", "Potency": "inconclusive: 6.51 µM [activator, partial curve]"}
{"smiles": "CCOC(=O)C(C(=O)OCC)C(C)(C)/C(C)=N\\Nc1ccc([N+](=O)[O-])cc1[N+](=O)[O-]", "Potency": "inconclusive: 11.6 µM [falling, partial curve, poor fit]"}
{"smiles": "Cc1ccc(C)c(N=Nc2ccc(O)c3ncccc23)c1", "Potency": "inconclusive: 29.1 µM [falling, single point]"}
{"smiles": "Cc1cc(NC(=O)c2cnn(-c3ccccc3)c2-n2cccc2)ccc1Br", "Potency": "inconclusive: 29.1 µM [activator, single point]"}
{"smiles": "Cc1cn2c(=O)cc(COC(=O)COc3ccc(C)c(C)c3)nc2s1", "Potency": "inconclusive: 18.4 µM [activator, single point]"}
{"smiles": "C(=N\\Nc1nc(-c2ccccn2)nc2ccccc12)/c1ccccc1", "Potency": "inconclusive: 2.31 µM [falling, full curve, poor fit]"}
{"smiles": "CCCOc1ccc(C(=O)N(Cc2ccc(Cl)cc2)Cc2ccco2)cc1", "Potency": "inconclusive: 29.1 µM [falling, single point]"}
{"smiles": "O=C(Nc1cccc(F)c1)C1CCN(S(=O)(=O)c2cccc3nonc23)CC1", "Potency": "inconclusive: 25.9 µM [falling, partial curve]"}
{"smiles": "CC(=O)c1c(C)n(-c2ccccc2)c2ccc(OCC(N)=O)cc12", "Potency": "inactive"}
{"smiles": "Cc1sc(NC(=O)c2ccccc2)c(C#N)c1-c1ccccc1", "Potency": "inconclusive: 2.31 µM [activator, partial curve]"}
{"smiles": "CC(C)(C)c1ccc(OCCC(=O)Nc2cccc(S(=O)(=O)N3CCOCC3)c2)cc1", "Potency": "inconclusive: 20.6 µM [falling, single point]"}
{"smiles": "Cc1ccc(-c2c(C(=O)NC(C)C)oc(=O)c3ccccc23)cc1", "Potency": "inconclusive: 18.4 µM [falling, single point]"}
{"smiles": "Cc1ccc(CNC(=O)c2ccc3c(c2)NC(=O)C(CS(=O)(=O)Cc2cccc(C)c2)N3)cc1", "note": "(centres undefined)", "Potency": "inconclusive: 29.1 µM [activator, single point]"}
{"smiles": "CCCCNC(=O)c1onc(CSc2cc(C)ccc2C)c1C(=O)O", "Potency": "inconclusive: 29.1 µM [activator, single point]"}
{"smiles": "COc1ccc(CCNC(=O)CCn2c(SCC(=O)N3CCCC3)nc3ccccc3c2=O)cc1OC", "Potency": "inconclusive: 20.6 µM [falling, single point]"}
{"smiles": "O=C(NNC(=S)NC(=O)c1ccccc1[N+](=O)[O-])c1ccccc1O", "Potency": "inactive"}
{"smiles": "O=C(Nc1ccccc1)OCCCc1ccccc1", "Potency": "inconclusive: 10.3 µM [activator, partial curve]"}
{"smiles": "O=C(CC(c1ccccc1)c1ccccc1)OCn1nnc2ccccc2c1=O", "Potency": "inconclusive: 14.6 µM [falling, partial curve, poor fit]"}
{"smiles": "Cc1ccc(CSc2nnc(SCC(=O)N/N=C/c3c[nH]c4ccccc34)s2)cc1", "Potency": "inconclusive: 29.1 µM [falling, single point]"}
{"smiles": "COc1cc(C(=O)Nc2cc(C)c(O)c(-c3nc4cc(Cl)ccc4o3)c2)cc(OC)c1OC", "Potency": "inconclusive: 7.31 µM [falling, single point]"}
{"smiles": "CC(=O)Nc1cccc(-c2csc(Nc3ccccn3)n2)c1", "Potency": "inconclusive: 0.517 µM [activator, full curve]"}
{"smiles": "COc1cc(C(C)=O)ccc1COc1ccc(C(=O)OCC(=O)NC(C)(C)C)cc1OC", "Potency": "inconclusive: 29.1 µM [falling, single point]"}
{"smiles": "CCCCNC(=S)Nc1ccc([N+](=O)[O-])cc1", "Potency": "active: 18.4 µM"}
{"smiles": "O=C(NCC[C@@H]1C[C@@H]2C=C[C@H]1C2)c1cc(COc2ccc(F)cc2F)on1", "Potency": "inconclusive: 32.6 µM [falling, single point]"}
{"smiles": "O=C(Nc1ccc2ccccc2n1)c1ccccc1Cl", "Potency": "inconclusive: 7.31 µM [activator, partial curve]"}
